Results from PMC4914112.
No constants are given. Whether binding was seen depends on the method and setting. For some of these results: Binding seen in cells or lysates may run through a third protein. Some entries that bind do so weakly or less than the wild type. Each block holds one substance with its values, some of them ahead of it.

Amino acid sequences for entries named in this document (tags omitted).
UniProt P19525: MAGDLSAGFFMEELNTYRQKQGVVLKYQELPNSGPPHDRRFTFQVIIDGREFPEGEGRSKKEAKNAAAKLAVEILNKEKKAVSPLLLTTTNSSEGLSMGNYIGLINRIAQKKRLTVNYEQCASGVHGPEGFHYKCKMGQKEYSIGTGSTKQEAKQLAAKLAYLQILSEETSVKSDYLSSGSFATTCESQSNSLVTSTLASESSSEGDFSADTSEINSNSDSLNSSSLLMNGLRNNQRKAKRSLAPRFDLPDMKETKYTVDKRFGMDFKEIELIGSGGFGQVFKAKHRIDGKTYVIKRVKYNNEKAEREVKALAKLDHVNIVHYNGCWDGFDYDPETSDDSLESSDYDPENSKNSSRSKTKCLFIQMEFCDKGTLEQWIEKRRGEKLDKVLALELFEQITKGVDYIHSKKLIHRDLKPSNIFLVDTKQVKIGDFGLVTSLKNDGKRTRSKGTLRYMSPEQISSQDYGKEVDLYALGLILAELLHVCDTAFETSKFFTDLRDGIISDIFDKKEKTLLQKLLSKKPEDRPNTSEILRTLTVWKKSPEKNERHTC
UniProt O95793: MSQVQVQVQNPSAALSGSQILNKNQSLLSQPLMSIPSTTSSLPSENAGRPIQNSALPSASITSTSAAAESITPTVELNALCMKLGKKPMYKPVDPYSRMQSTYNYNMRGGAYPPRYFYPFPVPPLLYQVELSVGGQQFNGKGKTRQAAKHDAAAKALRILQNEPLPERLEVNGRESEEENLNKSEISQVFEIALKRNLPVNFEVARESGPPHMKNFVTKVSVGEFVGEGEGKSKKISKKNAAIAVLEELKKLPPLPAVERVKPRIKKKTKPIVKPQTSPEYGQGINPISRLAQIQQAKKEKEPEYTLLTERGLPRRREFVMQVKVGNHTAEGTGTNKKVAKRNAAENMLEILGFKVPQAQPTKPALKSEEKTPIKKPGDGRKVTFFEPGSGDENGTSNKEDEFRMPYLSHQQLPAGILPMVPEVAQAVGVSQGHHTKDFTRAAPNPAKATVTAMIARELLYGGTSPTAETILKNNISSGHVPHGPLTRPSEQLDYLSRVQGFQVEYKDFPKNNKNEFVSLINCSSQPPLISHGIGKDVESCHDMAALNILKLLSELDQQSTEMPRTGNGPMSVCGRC

Key:
[1] = biological target: protein kinase R (PKR), endogenous in JFH1 HCV-infected Huh7.5 cells (human (endogenous in Huh7.5)) (UniProt P19525); assay: co-IP; lysate (50 μg) of JFH1 HCV-infected Huh7.5 cells, benzonase treated; 2 μg primary antibody, protein A/G Plus agarose, overnight at 4°C; lysis and wash buffer 50 mM Tris-HCl pH 7.4, 150 mM NaCl, 1% Triton X-100; western blot; IgG isotype control
[2] = biological target: recombinant PKR (pPET-PKR/λPP) (UniProt P19525); assay: co-IP; IP on a mixture of purified recombinant proteins (200 ng each protein); immunoblot; IgG control; both purified
[3] = biological target: Staufen1 (Stau1), endogenous in JFH1 HCV-infected Huh7.5 cells (human (endogenous in Huh7.5)) (UniProt O95793); assay: co-IP; lysate (50 μg) of JFH1 HCV-infected Huh7.5 cells, benzonase treated; 2 μg primary antibody, protein A/G Plus agarose, overnight at 4°C; lysis and wash buffer 50 mM Tris-HCl pH 7.4, 150 mM NaCl, 1% Triton X-100; western blot; IgG isotype control
[4] = biological target: recombinant His-tagged Stau1 (pET28a-Stau1) (human) (UniProt O95793); assay: co-IP; IP on a mixture of purified recombinant proteins (200 ng each protein); immunoblot; IgG control; both purified

Substance: Staufen1 (Stau1), endogenous in JFH1 HCV-infected Huh7.5 cells (from UniProt O95793 1-577)
binding [1]: binds

binding [2]: binds
Substance: recombinant His-tagged Stau1 (pET28a-Stau1) (from UniProt O95793 1-577)

Substance: protein kinase R (PKR), endogenous in JFH1 HCV-infected Huh7.5 cells (from UniProt P19525 1-551)
binding [3]: binds

binding [4]: binds
Substance: recombinant PKR (pPET-PKR/λPP) (from UniProt P19525 1-551) (enzyme)
